Assay results from PubChem BioAssay (NCATS).
This is one part of the list. Shown are side measurements of this screen, not its main read-out; they come without a call. The list favours compounds with an active or inconclusive main result. Words in brackets tell the shape of the fitted curve; partial curves, single points and poor fits give uncertain potencies.

Test: qHTS Assay for Inhibitors of PDE-IV (AID 607)
Conditions: HEK293 ACTOne CNG channel cells, membrane potential fluorescence; measured here: parental cell counter-screen
In short: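 HEK293 ACTOne cells with CNG channel (1000/well), endogenous PDE4; membrane potential dye, compounds up to 22.9 uM final. Fluorescence Ex 535/Em 590; RO 20-1724 (100 uM final) as reference.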

Row | Compound | AC50
1 | C[C@H]1CC(C)(C)C[C@@](OCCN2CCCCC2)(c2ccccc2)C1 | 1.26 µM [rising, partial curve]
2 | COc1ccccc1CNc1ncnc2ccc(-c3ccccc3OC)cc12 | 15.8 µM [rising, single point]
3 | O=C(c1cccc(F)c1)N1CCC2(CC1)CCN(c1ccncc1)CC2 | 7.94 µM [rising, partial curve]
4 | COc1ccc(C(=O)N2CCC3(CCCN(Cc4ccccc4)C3)CC2)cc1 | 12.6 µM [rising, single point]
5 | O=C(Cc1ccc(Cl)c(Cl)c1)OCCN1CCCC1 | 6.31 µM [rising, partial curve, poor fit]
6 | COC(=O)[C@@]1(Cc2ccc(F)cc2)[C@H]2c3cc(C(=O)N(C)C)n(Cc4ccsc4Br)c3C[C@H]2CN1C(=O)c1ccccc1 | 12.6 µM [rising, single point]
7 | COC(=O)N1CCC[C@@]2(CCN(C(c3ccccc3)c3ccccc3)C2)C1 | 0.0126 µM [rising, full curve, poor fit]
8 | CC(=O)N1CCC[C@@]2(CCN(c3ncccn3)C2)C1 | 0.0794 µM [rising, single point]
9 | CCC/C=C(\CCC)C(NC(=O)Cc1ccccc1)c1ccc(C(=O)OC)cc1 (centres undefined) | 6.31 µM [rising, partial curve]
10 | COC(=O)[C@@]1(Cc2ccccc2)[C@H]2c3cc(C(=O)N4CCCC4)n(Cc4ccsc4Br)c3C[C@H]2CN1C(=O)c1ccccc1 | 3.16 µM [rising, single point]
11 | Cc1ccc(/C(=C/CN2CCCC2)c2ccccn2)cc1 | 25.1 µM [rising, partial curve, poor fit]
12 | O=C(c1ccco1)N1CCC2(CC1)CCN(c1cccc(-c3ccccc3)c1)CC2 | 0.794 µM [rising, single point]
13 | C/C(=C\c1ccc(Cl)cc1)C(C)(C)C(=O)O | 3.16 µM [rising, single point]
14 | COc1ccc(-c2nc3cnc(OC)nc3n(C[C@H]3CCCO3)c2=O)cc1 | 15.8 µM [rising, single point]
15 | Clc1ccc([C@H](Cn2ccnc2)OCc2c(Cl)cccc2Cl)c(Cl)c1 | 10 µM [rising, single point]
16 | CCCCc1c2ccccc2nc2[nH]c3ccccc3c12 | 7.94 µM [rising, single point]
17 | O=C(c1ccco1)N1CCC2(CCN(Cc3ccccc3)CC2)CC1 | 3.16 µM [rising, single point]
18 | COC(=O)C1(Cc2ccccc2)C2c3cc(C(=O)N4CCCC4)n(Cc4ccc(OC(F)(F)F)cc4)c3CC2CN1C(=O)c1ccccc1 (centres undefined) | 0.251 µM [rising, full curve]
19 | COc1ccccc1CNc1ncncc1-c1ccccc1C | 15.8 µM [rising, single point]

Sorted by SMILES length (low to high): 5 of the compounds above.
Row | Compound | AC50
19 | COc1ccccc1CNc1ncncc1-c1ccccc1C | 15.8 µM [rising, single point]
5 | O=C(Cc1ccc(Cl)c(Cl)c1)OCCN1CCCC1 | 6.31 µM [rising, partial curve, poor fit]
2 | COc1ccccc1CNc1ncnc2ccc(-c3ccccc3OC)cc12 | 15.8 µM [rising, single point]
17 | O=C(c1ccco1)N1CCC2(CCN(Cc3ccccc3)CC2)CC1 | 3.16 µM [rising, single point]
4 | COc1ccc(C(=O)N2CCC3(CCCN(Cc4ccccc4)C3)CC2)cc1 | 12.6 µM [rising, single point]
